{
  "source": "PubChem BioAssay AID1745850",
  "about": "(National Center for Advancing Translational Sciences (NCATS), 2022)",
  "note": "About 260 (12%) of roughly 2,100 compounds were called active. This list was built around the results that the source calls inconclusive (neither active nor inactive); the mix of calls is not that of the screen. The call rests on the fitted dose curve; in most records, active means well fitted cell-killing curve with a large enough effect; inconclusive means small, poorly fitted or top-dose-only effect, or effect the other way; inactive means flat fitted curve, though single readings scatter. Potencies of inconclusive entries are doubtful fits and often do not repeat. Potency means the concentration at half of the fitted maximal effect.",
  "data": [
    {"experiment": "Viability Counterscreen for Confirmatory qHTS for Inhibitors of ATXN expression; further: nearly all actives have a fitted effect of over 50% in size", "settings": "HEK-293 ATXN2-luc cells viability, CellTiter-Fluor, 24 h; activity change, negative = cytotoxicity: at 11.5 µM (top of the series) unless noted", "in_short": "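Luminescence read-out (SteadyGlo, 5 min) followed a 30 min Gly-Phe-AFC (25 uM final) viability fluorescence read. ATXN2-luciferase reporter cells were exposed 24 h to a dilution series. Medium-only wells served as the 100% inhibition reference.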", "values": [
      {"compound": "CC(C)COCc1ccc(O)c2ncccc12", "activity change, negative = cytotoxicity": "inactive: -28.8%"},
      {"compound": "Oc1ccc2ccccc2c1/C=C/c1ccc2c(Br)cc(Br)c(O)c2n1", "Potency": "inconclusive: 25.1 µM [cytotoxic, single point]"},
      {"compound": "CS(=O)(=O)N(CC(O)CON=C1c2ccccc2-c2ccccc21)c1ccc(F)cc1", "note": "(centres undefined)", "activity change, negative = cytotoxicity": "inactive: -13.4%"},
      {"compound": "Cc1ccc(OCC(=O)N2CCN(c3nnc(-c4ccc(C)cc4)c4ccccc34)CC2)cc1", "Potency": "inconclusive: 3.55 µM [cytotoxic, single point]"},
      {"compound": "O=C(N/N=C/c1cc(Br)ccc1O)c1ccncc1", "activity change, negative = cytotoxicity": "inactive: -3.23%"},
      {"compound": "CC1(C(=O)NC2CCN(Cc3ccccc3)CC2)CCN1Cc1ccc2ccccc2c1", "note": "(centres undefined)", "Potency": "inconclusive: 3.55 µM [cytotoxic, single point]"},
      {"compound": "Cc1nc(N=C(N)N)nc2c(C)cccc12", "Potency": "inconclusive: 15.8 µM [cytotoxic, partial curve]"},
      {"compound": "CC[C@H]1CN2CCc3cc(OC)c(OC)cc3C2C[C@@H]1C[C@H]1NCCc2cc(OC)c(OC)cc21", "note": "(some centres undefined)", "Potency": "inconclusive: 0.282 µM [cytotoxic, full curve]"},
      {"compound": "Cc1nc2c(OCc3ccc(C(F)(F)F)cc3)cccn2c1N(C)CC1CC1", "Potency": "inconclusive: 3.55 µM [cytotoxic, partial curve, poor fit]"},
      {"compound": "CCCCn1c(=N)n(CCOc2ccc(C)cc2)c2ccccc21", "Potency": "inconclusive: 35.5 µM [cytotoxic, single point]"},
      {"compound": "CCSc1nc2ccccc2n1C(=O)/C=C\\c1ccc(OC)c(OC)c1", "Potency": "active: 7.94 µM"},
      {"compound": "CCc1cc(C)cc(OCCNC(=O)c2cncc(Br)c2)c1", "activity change, negative = cytotoxicity": "inactive: -9.86% [at 57.5 µM]"},
      {"compound": "CN(C)CCCN(C(=O)c1ccc(S(=O)(=O)N(C)Cc2ccccc2)cc1)c1nc2c(F)cccc2s1", "Potency": "inconclusive: 39.8 µM [cytotoxic, single point]"},
      {"compound": "S=C(Nc1ccc(Cl)c(Cl)c1)NC1CCCCC1", "Potency": "inconclusive: 39.8 µM [cytotoxic, single point]"},
      {"compound": "O=C(Nc1ccc(NC(=O)c2ccc(Cl)cc2Cl)cc1)c1cccs1", "activity change, negative = cytotoxicity": "inactive: -22.4% [at 57.5 µM]"},
      {"compound": "COc1cccc(-c2ccc(NC(=O)C3CCCN(Cc4cnn(C(C)C)c4)C3)cc2)c1", "note": "(centres undefined)", "Potency": "inconclusive: 7.08 µM [cytotoxic, single point]"},
      {"compound": "O=C(CSc1n[nH]c(-c2ccccn2)n1)Nc1ccc(F)cc1", "Potency": "inconclusive: 15.8 µM [cytotoxic, partial curve]"},
      {"compound": "Cc1cc(C)c(CSc2ncc(-c3ccc([N+](=O)[O-])cc3)[nH]2)c(C)c1", "Potency": "inconclusive: 39.8 µM [cytotoxic, single point]"},
      {"compound": "COc1cc(/C=C/c2ccc3cccc(O)c3n2)cc(OC)c1OC", "Potency": "inconclusive: 12.6 µM [cytotoxic, partial curve, poor fit]"},
      {"compound": "O=C(N/N=C/c1cc(Br)cc(Cl)c1O)c1ccc2c(c1)OCO2", "Potency": "inconclusive: 7.94 µM [cytotoxic, full curve, poor fit]"},
      {"compound": "Cc1cc(Cl)ccc1-c1cc2nc(NCCCN(C)C)n(C)c(=O)c2s1", "activity change, negative = cytotoxicity": "inactive: 15%"},
      {"compound": "N#Cc1cc2c(=O)n3ccccc3nc2n(-c2ccccc2Cl)c1=O", "Potency": "inconclusive: 22.4 µM [rising, partial curve]"},
      {"compound": "COc1ccc2c(c1)c[n+](C)c1c3cc(OC)c(OC)cc3ccc21", "Potency": "inconclusive: 39.8 µM [cytotoxic, single point]"},
      {"compound": "CCc1sc(C(=O)Nc2nc(-c3ccccn3)cs2)cc1C", "Potency": "inconclusive: 14.1 µM [cytotoxic, partial curve]"},
      {"compound": "Cc1ccc(-n2cccn2)c(CN2CCCC(C(=O)c3ccc4c(c3)OCO4)C2)c1", "note": "(centres undefined)", "Potency": "inconclusive: 35.5 µM [cytotoxic, single point]"},
      {"compound": "COc1ccc(C)cc1NC(=O)C(Sc1nnc(-c2ccncc2)n1-c1ccc(Cl)cc1)c1ccccc1", "note": "(centres undefined)", "activity change, negative = cytotoxicity": "inactive: -12.9%"},
      {"compound": "CC(C)(C)c1ccc(OCCCC(=O)NNC(=O)c2ccccc2O)cc1", "Potency": "inconclusive: 35.5 µM [cytotoxic, partial curve, poor fit]"},
      {"compound": "Cc1ccc2nc(N(CCCN(C)C)C(=O)c3ccc(S(=O)(=O)N4CCCCCC4)cc3)sc2c1", "Potency": "inconclusive: 6.31 µM [cytotoxic, single point]"},
      {"compound": "O=S(=O)([N-]c1nc2ccccc2nc1-[n+]1ccc(Cc2ccccc2)cc1)c1ccc(Br)s1", "Potency": "active: 7.94 µM"},
      {"compound": "O=C(Nc1nonc1-c1ccc(Cl)cc1)c1ccccc1", "activity change, negative = cytotoxicity": "inactive: -24.8% [at 57.5 µM]"},
      {"compound": "CCOc1ccc(-c2c[n+]3c(n2-c2ccccc2)CCCCC3)cc1", "Potency": "inconclusive: 14.1 µM [cytotoxic, partial curve, poor fit]"},
      {"compound": "CCOc1ccc(CCNC(=O)c2ccc(OCc3c(C)noc3C)cc2)cc1OCC", "activity change, negative = cytotoxicity": "inactive: -11.7%"},
      {"compound": "NCCCCCc1nnc(SCc2ccccc2Cl)o1", "activity change, negative = cytotoxicity": "inactive: -25.5%"},
      {"compound": "CSc1sc(-c2nnc(SCC(=O)Nc3ccc(Cl)cc3)n2C)c2c1C=CCC2", "activity change, negative = cytotoxicity": "inactive: -6.66%"},
      {"compound": "COc1ccc(CCNC2=C(Cl)C(=O)N(CCc3ccccc3)C2=O)cc1OC", "Potency": "inconclusive: 3.98 µM [rising, single point]"},
      {"compound": "COc1ccc(O)c(/C=N/NC(=O)c2ccc(CSc3nc(C)cc(C)n3)cc2)c1", "Potency": "inconclusive: 6.31 µM [cytotoxic, partial curve]"},
      {"compound": "O=C(CNS(=O)(=O)c1ccc([N+](=O)[O-])cc1)N/N=C/c1ccc(O)cc1O", "activity change, negative = cytotoxicity": "inactive: -28.9%"},
      {"compound": "CN1CCN(C2Cc3cc(Cl)ccc3Sc3cc(F)ccc32)CC1", "note": "(centres undefined)", "Potency": "inconclusive: 8.91 µM [cytotoxic, single point]"},
      {"compound": "C[C@@H]1ON(C)[C@H]2C[C@H]3c4[nH]c5ccc(-c6ccc7c(c6)OCO7)cc5c4CCN3C(=O)[C@@H]12", "activity change, negative = cytotoxicity": "inactive: -27.8% [at 57.5 µM]"},
      {"compound": "Cn1c(=O)c2c(nc(CN3CCN(Cc4ccccc4)CC3)n2Cc2ccc(Cl)cc2)n(C)c1=O", "Potency": "inconclusive: 39.8 µM [cytotoxic, single point]"},
      {"compound": "CCn1c2ccccc2c2cc(/C=N/n3cnnc3)ccc21", "activity change, negative = cytotoxicity": "inactive: -18.4%"},
      {"compound": "O=C(NCc1ccco1)c1nc2c(nnn2Cc2ccccc2Cl)c(=O)[nH]1", "Potency": "inconclusive: 1.78 µM [cytotoxic, partial curve]"},
      {"compound": "COc1ccc(-c2c[n+]3c(n2-c2ccc(C)cc2)CCCCC3)cc1", "Potency": "inconclusive: 25.1 µM [cytotoxic, partial curve, poor fit]"},
      {"compound": "CCCCC(=O)NC(c1ccc(N(CC)CC)cc1)c1ccc2cccnc2c1O", "note": "(centres undefined)", "activity change, negative = cytotoxicity": "inactive: -19.4%"},
      {"compound": "O=C(N/N=C/c1cc(Br)ccc1O)C(c1ccncc1)N1CCOCC1", "note": "(centres undefined)", "Potency": "inconclusive: 12.6 µM [cytotoxic, partial curve]"},
      {"compound": "COc1cccc(C(=O)NC2CC3CCCC(C2)N3CC(=O)Nc2ccccc2C(F)(F)F)c1", "note": "(centres undefined)", "Potency": "inconclusive: 31.6 µM [cytotoxic, single point]"},
      {"compound": "Cc1ccc(-c2noc(CCCC(=O)NC3CCCC3)n2)cc1", "Potency": "inconclusive: 12.6 µM [cytotoxic, partial curve, poor fit]"},
      {"compound": "CC(C)C(=O)NC(c1cccc([N+](=O)[O-])c1)c1ccc2cccnc2c1O", "note": "(centres undefined)", "Potency": "active: 7.94 µM"},
      {"compound": "OC(CNCCc1ccccc1)COc1ccc(OCC(O)CNCCc2ccccc2)cc1", "note": "(centres undefined)", "Potency": "active: 22.4 µM"},
      {"compound": "CN1CCCC1CCOC(C)(c1ccccc1)c1ccc(Cl)cc1", "note": "(centres undefined)", "Potency": "inconclusive: 25.1 µM [cytotoxic, partial curve, poor fit]"},
      {"compound": "COc1ccccc1N(C)S(=O)(=O)c1ccc(C(=O)Nc2ccc(N3CCOCC3)cc2)cc1", "Potency": "inconclusive: 31.6 µM [cytotoxic, single point]"},
      {"compound": "OCC1(CCOc2ccccc2)CCN(CC2=Cc3cc(Cl)ccc3OC2)CC1", "activity change, negative = cytotoxicity": "inactive: -23.6% [at 57.5 µM]"},
      {"compound": "COc1cc(C#Cc2c(-c3cncn3C)n(C)c3ccc(-c4cnc(OC)nc4)cc23)cc(OC)c1", "activity change, negative = cytotoxicity": "inactive: -4.58%"},
      {"compound": "CCN1CCN(CCNC(=O)c2ccc(/C=C3/Sc4ccccc4N(Cc4cccc(C)c4)C3=O)cc2)CC1", "Potency": "inconclusive: 31.6 µM [cytotoxic, single point]"},
      {"compound": "CC(=O)c1ccc(C(=O)Nc2nnc(-c3ccc(Cl)cc3)o2)cc1", "activity change, negative = cytotoxicity": "inactive: -8.23%"},
      {"compound": "CCN(CC)c1ccc2c(Cl)c(Br)c(=O)oc2c1", "Potency": "inconclusive: 3.55 µM [rising, partial curve]"},
      {"compound": "O=C(Nc1ccc2c(c1)CCC2)C1CCN(c2c3c(nc4ncnn24)CCC3)CC1", "activity change, negative = cytotoxicity": "inactive: -26% [at 57.5 µM]"},
      {"compound": "Cc1ccnc(NC(c2ccccc2)c2ccc3cccnc3c2O)c1", "note": "(centres undefined)", "Potency": "inconclusive: 20 µM [cytotoxic, partial curve]"},
      {"compound": "CCCNC(=O)c1ccc2c(=O)c(O)c(-c3ccc(F)cc3)[nH]c2c1", "activity change, negative = cytotoxicity": "inactive: -12.7% [at 57.5 µM]"},
      {"compound": "COc1cc(/C=C/C(O)=C/C(=O)/C=C/c2ccc(O)cc2)ccc1O", "Potency": "inconclusive: 3.98 µM [cytotoxic, partial curve, poor fit]"},
      {"compound": "O=C(Nc1ccccc1C(=O)Nc1nnc(C(F)(F)F)s1)c1ccccc1", "Potency": "active: 3.98 µM"},
      {"compound": "CCCCn1c(/C=N/Nc2nc3ccccc3[nH]2)nc2ccccc21", "activity change, negative = cytotoxicity": "inactive: -8.13%"},
      {"compound": "O=C(Nc1nc(-c2ccccn2)cs1)Nc1ccc(F)cc1F", "Potency": "inconclusive: 11.2 µM [cytotoxic, partial curve]"},
      {"compound": "Cc1ccc(C(C[N+](=O)[O-])Sc2ccc(N)cc2)cc1", "note": "(centres undefined)", "Potency": "inconclusive: 3.98 µM [cytotoxic, single point]"},
      {"compound": "CC(C)(C)OC(=O)N1CCC(c2c(C(=O)NCC3CCN(C4CCCC4)C3)cnn2-c2cccc(Cl)c2)CC1", "note": "(centres undefined)", "Potency": "inconclusive: 4.47 µM [cytotoxic, single point]"},
      {"compound": "Cc1ccc(OCC(O)Cn2c(=N)n(CCN3CCCCC3)c3ccccc32)cc1", "note": "(centres undefined)", "Potency": "active: 22.4 µM"},
      {"compound": "COc1c(C)cccc1C(=O)Nc1ccc(N2CCN(C(=O)c3ccccc3C)CC2)cc1", "Potency": "active: 25.1 µM"},
      {"compound": "O=C(NCc1ccco1)/C(=C/c1cccc(C(F)(F)F)c1)c1nc2ccccc2[nH]1", "Potency": "inconclusive: 3.55 µM [cytotoxic, single point]"},
      {"compound": "O=S(=O)(c1ccc(Cl)cc1)N1CCN(Cc2ccc(O)c3ncccc23)CC1", "Potency": "inconclusive: 7.08 µM [cytotoxic, full curve, poor fit]"}
    ]}
  ]
}
